Reference: patent US20190352407A1
Results are given in words; binding and its absence hold for the method and conditions named. Some entries that bind do so weakly or less than the wild type. Values belong to the binder of their own block, whether it stands above or below them.

The chains behind the UniProt entries cited, without tags or fusion partners. Where a name states a change or a piece, a line headed by the entry shows the natural chain unless it says otherwise.
UniProt P30530: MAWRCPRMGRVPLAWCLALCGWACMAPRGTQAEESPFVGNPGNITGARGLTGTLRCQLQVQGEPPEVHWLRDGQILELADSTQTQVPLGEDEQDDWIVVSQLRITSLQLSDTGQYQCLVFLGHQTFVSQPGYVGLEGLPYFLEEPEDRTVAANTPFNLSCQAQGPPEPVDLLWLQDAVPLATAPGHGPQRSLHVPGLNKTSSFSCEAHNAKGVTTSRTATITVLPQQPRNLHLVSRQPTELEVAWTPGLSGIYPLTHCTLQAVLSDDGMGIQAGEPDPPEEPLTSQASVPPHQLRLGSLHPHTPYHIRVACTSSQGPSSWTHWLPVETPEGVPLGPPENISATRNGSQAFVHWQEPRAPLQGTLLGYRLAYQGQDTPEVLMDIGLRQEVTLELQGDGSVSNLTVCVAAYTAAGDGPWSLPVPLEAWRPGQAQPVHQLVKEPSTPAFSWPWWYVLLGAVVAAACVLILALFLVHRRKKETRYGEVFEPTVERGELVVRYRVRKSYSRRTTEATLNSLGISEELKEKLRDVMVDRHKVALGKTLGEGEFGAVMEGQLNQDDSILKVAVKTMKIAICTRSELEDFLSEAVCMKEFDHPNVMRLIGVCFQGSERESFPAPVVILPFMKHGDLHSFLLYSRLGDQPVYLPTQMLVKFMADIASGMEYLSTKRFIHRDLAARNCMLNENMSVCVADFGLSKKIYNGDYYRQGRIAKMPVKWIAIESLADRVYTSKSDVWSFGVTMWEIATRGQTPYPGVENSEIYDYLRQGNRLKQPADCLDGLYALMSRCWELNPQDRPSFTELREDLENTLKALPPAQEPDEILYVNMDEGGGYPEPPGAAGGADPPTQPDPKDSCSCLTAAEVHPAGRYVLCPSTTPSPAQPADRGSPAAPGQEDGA

Key:
[1] = target: Human AXL-Strep-His (human) (UniProt P30530); assay: SPR, Axl-Strep-His antigen
[2] = target: Human AXL-Strep-His (human) (UniProt P30530); assay: ELISA on coated Axl-Strep-His (Protocol 4)
[3] = target: Human AXL-Strep-His (human) (UniProt P30530); assay: human AXL ELISA (Protocol 4), antibody untreated and after 60 hr at 40 °C in PBS, OD 450 nm
[4] = target: Human AXL-Strep-His (human) (UniProt P30530); assay: human AXL ELISA after heating in PBS at 40 C for 60 hr
[5] = target: Human AXL-Strep-His (human) (UniProt P30530); assay: ELISA on plate-coated human AXL-Strep-His (Protocol 4), OD 450 nm [panel A. Human Axl]

binding [1]: binds
binding [2]: binds
binding [3]: binds
binding [4]: binds
binding [5]: binds
B1: Ab5 (antibody, V domains shown)
VH: EVQLVESGGGLVQPGGSLRLSCAASGFTFSSYGMSWVRQAPGKGLEWVATISSGGSYTYYPDSVKGRFTISRDNAKNSLYLQMNSLRAEDTAVYYCARHPIYYTYDDTMDYWGQGTLVTVSS
VL: EIVLTQSPGTLSLSPGERATLSCSASSSVSSGNFHWYQQKPGLAPRLLIYRTSNLASGIPARFSGSGSGTDFTLTISSLEPEDFAVYYCQQWSGYPWTFGGGTKLEIK

binding [2]: binds
binding [3]: binds
binding [4]: binds
B2: Ab1 (antibody, V domains shown)
VH: EVQLVESGGDLVKPGGSLKLSCAASGFTFSSYGMSWVRQTPDKRLEWVATISSGGSYTYYPDSVKGRFTISRDNAKNTLYLQMSSLKSEDTAMYYCARHPIYYTYDDTMDYWGQGTSVTVSS
VL: ENVLTQSPAIMAASPGEKVTMTCSASSSVSSGNFHWYQQKPGTSPKLWIYRTSNLASGVPARFSGSGSGTSYSLTISSMEAEDAATYYCQQWSGYPWTFGGGTKLEIK
